According to paper PMC9307851:

Biological target: DNMT3B MTase domain R670Q (human) (UniProt Q9UBC3)
Experiment: EMSA
Settings: 40 nM DNA, 0-800 nM protein; EMSA: 50 mM Tris-HCl pH 8.0, 25% glycerol, 8% glucose, 2 mM DTT, 0.1 mg/mL BSA, 30 min, gel in 0.5x TBE at 4 C; recombinant …; residues 569-853; protein details: His6-MBP removed by TEV

GACGACGACGACGACGACGACGACGACGACGACGAC (double strand) [(GAC)12 DNA duplex]
binding result: binds more weakly

For at least one entry, the source does not settle the construct or the ends of the probe. A weaker result is weaker than the reference pair of the same experiment. At least one verdict was read from the data and is not stated in words by the source.
